PubChem BioAssay AID192 (DTP/NCI, 2004)
The list is a part of this screen's results and no random one: it is rich in T/C values a quarter to a half above the control, in often repeated tests (any T/C) and in doses without a T/C. Other doses and runs of a compound stand elsewhere. T/C: endpoint of the treated group in % of that of the vehicle group. Some doses have a count of surviving animals in place of a T/C: the source files T/C as zero there, which appears to mark a toxic dose or a test without result, not a measured value. Some doses without a T/C left all or most animals alive at the check, yet need not have been tolerated: the source hardly ever lists a survival T/C far under the control, and the zero likely stands for such cases as well. Survivors were counted at the toxicity check, usually on the fifth day, unless a day is given; later deaths do not show. Schedules are NCI's codes, read here as Q, the interval in days (D) or hours (H), X, the number of doses. Marks such as (2×) say how often a value occurs here. Some doses were run more than once; their values stand side by side, smallest first. Where survival is the endpoint, this PubChem deposit counts one and a half times the control or more as active, and values a quarter to a half above the control carry no call in these data; other NCI protocols may use other cut-offs. Some T/C values are followed by the survivors on the day toxicity was checked, most often the fifth; without a count, all were alive then. Numbered stars: 1 amine (or outer) side, 2 acyl side, 3 side chain; on linkers, the order of the positions; unused ones are H or OH. Bridge positions count the residues as written; N and C are the ends. Square brackets hold non-standard residues; d marks the D form. Peptide text beside a SMILES is read from it. I, II: the chains in the order shown. Actinocin(9to1) = Cc1c2oc3c(C)ccc(C(=O)[*:1])c3nc-2c(C(=O)[*:2])c(N)c1=O; aThr = C[C@H](O)[C@H](N)C(=O)O; NMeV = CN[C@H](C(=O)O)C(C)C; Sar = CNCC(=O)O

Tested on: BDF1 mice, B16 melanoma ip, median survival T/C
Assay: NCI In Vivo Anticancer Drug Screen. Data for tumor model B16 Melanoma (intraperitoneal) in B6D2F1 (BDF1) mice
Conditions: T/C endpoint: median survival time, higher T/C = longer survival
How it was run: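 Transplantable tumor model; survival or tumor size measured; reported as T/C, treated over vehicle control.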

SMILES: Cc1c2oc3c(C)ccc(C(=O)N[C@@H]4C(=O)N[C@H](C(C)C)C(=O)N5CCC[C@H]5C(=O)N(C)CC(=O)N(C)[C@@H](C(C)C)C(=O)O[C@H]4C)c3nc-2c(C(=O)N[C@@H]2C(=O)N[C@H](C(C)C)C(=O)N3CCC[C@H]3C(=O)N(C)CC(=O)N(C)[C@@H](C(C)C)C(=O)O[C@H]2C)c(N)c1=O (I: [aThr][dV]P[Sar][NMeV] / II: [aThr][dV]P[Sar][NMeV]; ester I:1-I:C, II:1-II:C; linker I:N-II:N via Actinocin(9to1))
- T/C (dose: 30.0 micrograms/kg/injection, schedule: Q01DX009 (ip), vehicle: saline): 134 % of control
- T/C (dose: 32.0 micrograms/kg/injection, schedule: Q04DX003 (ip), vehicle: saline): 130 % of control
- T/C (dose: 36.0 micrograms/kg/injection, schedule: Q01DX009 (ip), vehicle: saline + alcohol): 140 % of control
- T/C (dose: 37.5 micrograms/kg/injection, schedule: Q04DX003 (ip), vehicle: saline + alcohol, evaluated on day 45): 106, 108, 124, 125 % of control
- T/C (dose: 37.5 micrograms/kg/injection, schedule: Q04DX003 (ip), vehicle: saline + alcohol, evaluated on day 60): 128 % of control
- T/C (dose: 50.0 micrograms/kg/injection, schedule: Q01DX009 (ip), vehicle: saline, evaluated on day 45): 133 and 154 % of control
- T/C (dose: 50.0 micrograms/kg/injection, schedule: Q01DX009 (ip), vehicle: saline, evaluated on day 60): 91, 102, 107, 109 [5 of 6 alive], 113, 116, 116 [5 of 6 alive], 120, 128, 135, 136, 152, 153, 155, 161, 163, 164, 164 [9 of 10 alive], 165, 165 [9 of 10 alive], 175 (2×), 176, 177, 196 % of control
- survivor count (dose: 50.0 micrograms/kg/injection, schedule: Q01DX009 (ip), vehicle: saline): 2 of 6, 3 of 6, 5 of 6, 6 of 6
- T/C (dose: 50.0 micrograms/kg/injection, schedule: Q01DX009 (ip), vehicle: water): 133 % of control
- survivor count (dose: 64.0 micrograms/kg/injection, schedule: Q01DX009 (ip), vehicle: saline): 10 of 10
- survivor count (dose: 64.0 micrograms/kg/injection, schedule: Q01DX017 (ip), vehicle: saline): 10 of 10
- T/C (dose: 64.0 micrograms/kg/injection, schedule: Q04DX003 (ip), vehicle: saline): 130 % of control
- T/C (dose: 64.8 micrograms/kg/injection, schedule: Q04DX003 (ip), vehicle: saline + alcohol): 144 % of control
- T/C (dose: 75.0 micrograms/kg/injection, schedule: Q01DX009 (ip), vehicle: saline + alcohol): 142 % of control
- T/C (dose: 75.0 micrograms/kg/injection, schedule: Q04DX003 (ip), vehicle: saline + alcohol, evaluated on day 45): 128, 133, 152, 154 % of control
- T/C (dose: 75.0 micrograms/kg/injection, schedule: Q04DX003 (ip), vehicle: saline + alcohol, evaluated on day 60): 133 % of control
- T/C (dose: 75.0 micrograms/kg/injection, schedule: Q04DX003 (ip), vehicle: saline): 128 % of control
- survivor count (dose: 100.0 micrograms/kg/injection, schedule: Q01DX009 (ip), vehicle: saline + alcohol): 8 of 8
- T/C (dose: 100.0 micrograms/kg/injection, schedule: Q01DX009 (ip), vehicle: saline, evaluated on day 45): 126 and 181 % of control
- T/C (dose: 100.0 micrograms/kg/injection, schedule: Q01DX009 (ip), vehicle: saline, evaluated on day 60): 88, 90, 116, 121, 125, 132, 134, 143, 168 [9 of 10 alive], 169, 179, 186, 212 % of control
- survivor count (dose: 100.0 micrograms/kg/injection, schedule: Q01DX009 (ip), vehicle: saline): 0 of 6, 3 of 6, 4 of 6, 5 of 6, 9 of 10, 10 of 10 (2×), 6 of 6
- survivor count (dose: 100.0 micrograms/kg/injection, schedule: Q01DX009 (ip), vehicle: water): 10 of 10 (2×)
- T/C (dose: 112.5 micrograms/kg/injection, schedule: Q04DX003 (ip), vehicle: saline): 139 and 140 % of control
- T/C (dose: 128.0 micrograms/kg/injection, schedule: Q01DX001 (ip), vehicle: saline): 130 % of control
- survivor count (dose: 128.0 micrograms/kg/injection, schedule: Q01DX009 (ip), vehicle: saline): 8 of 10
- survivor count (dose: 128.0 micrograms/kg/injection, schedule: Q01DX017 (ip), vehicle: saline): 10 of 10
- survivor count (dose: 139.0 micrograms/kg/injection, schedule: Q01DX009 (ip), vehicle: saline): 10 of 10
- T/C (dose: 150.0 micrograms/kg/injection, schedule: Q04DX003 (ip), vehicle: saline + alcohol, evaluated on day 45): 125, 142, 162, 184 % of control
- T/C (dose: 150.0 micrograms/kg/injection, schedule: Q04DX003 (ip), vehicle: saline + alcohol, evaluated on day 60): 116, 164, 177 % of control
- T/C (dose: 150.0 micrograms/kg/injection, schedule: Q04DX003 (ip), vehicle: saline): 141 % of control
- T/C (dose: 150.0 micrograms/kg/injection, schedule: Q04DX003 (ip), vehicle: water): 128 % of control
- survivor count (dose: 200.0 micrograms/kg/injection, schedule: Q01DX009 (ip), vehicle: saline): 6 of 10 (2×), 8 of 10, 5 of 6, 10 of 10 (2×)
- survivor count (dose: 200.0 micrograms/kg/injection, schedule: Q01DX009 (ip), vehicle: water): 10 of 10
- survivor count (dose: 225.0 micrograms/kg/injection, schedule: Q04DX003 (ip), vehicle: saline + alcohol): 8 of 8
- T/C (dose: 225.0 micrograms/kg/injection, schedule: Q04DX003 (ip), vehicle: saline): 128 % of control
- T/C (dose: 256.0 micrograms/kg/injection, schedule: Q01DX001 (ip), vehicle: saline): 145 % of control
- survivor count (dose: 256.0 micrograms/kg/injection, schedule: Q01DX005 (ip), vehicle: saline): 10 of 10
- T/C (dose: 300.0 micrograms/kg/injection, schedule: Q04DX003 (ip), vehicle: saline + alcohol, evaluated on day 45): 156, 171, 173, 179 % of control
- T/C (dose: 300.0 micrograms/kg/injection, schedule: Q04DX003 (ip), vehicle: saline + alcohol, evaluated on day 60): 100 and 177 % of control
- T/C (dose: 300.0 micrograms/kg/injection, schedule: Q04DX003 (ip), vehicle: saline + alcohol, evaluated on day 70): 175 % of control
- survivor count (dose: 300.0 micrograms/kg/injection, schedule: Q04DX003 (ip), vehicle: saline + alcohol): 7 of 8, 10 of 10, 8 of 8
- survivor count (dose: 300.0 micrograms/kg/injection, schedule: Q04DX003 (ip), vehicle: saline): 10 of 10
- survivor count (dose: 400.0 micrograms/kg/injection, schedule: Q01DX009 (ip), vehicle: saline): 9 of 10
- survivor count (dose: 450.0 micrograms/kg/injection, schedule: Q04DX003 (ip), vehicle: saline + alcohol): 8 of 8
- survivor count (dose: 450.0 micrograms/kg/injection, schedule: Q04DX003 (ip), vehicle: saline): 10 of 10
- survivor count (dose: 500.0 micrograms/kg/injection, schedule: Q04DX003 (ip), vehicle: saline + alcohol): 2 of 7 and 10 of 10
- survivor count (dose: 512.0 micrograms/kg/injection, schedule: Q01DX005 (ip), vehicle: saline): 10 of 10
- survivor count (dose: 512.0 micrograms/kg/injection, schedule: Q04DX003 (ip), vehicle: saline): 9 of 10
- T/C (dose: 600.0 micrograms/kg/injection, schedule: Q04DX003 (ip), vehicle: saline + alcohol, evaluated on day 45): 169, 188, 196 % of control
- T/C (dose: 600.0 micrograms/kg/injection, schedule: Q04DX003 (ip), vehicle: saline + alcohol, evaluated on day 60): 204 % of control
- survivor count (dose: 600.0 micrograms/kg/injection, schedule: Q04DX003 (ip), vehicle: saline + alcohol): 8 of 10
- survivor count (dose: 600.0 micrograms/kg/injection, schedule: Q04DX003 (ip), vehicle: water): 10 of 10
